According to the supplement of paper PMC12823440, “Inhibitors supercharge kinase turnover through native proteolytic circuits” (Nature, 2025):
Some of the results follow. Hit calls seldom repeat between salt and free forms of one compound.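 In K562 cells expressing nanoluciferase-fused kinases, luminescence was recorded at 4 h intervals between 2 and 18 h, normalized as percent of control with DMSO at 100% and a positive control at 0%. A significant (2 sigma) signal drop marks a time point as decreased. The authors' rule for a hit is not shown and takes in more than the number of time points.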

Chains of the proteins cited; added tags and fusions are not shown.
UniProt Q9UQM7, whole entry: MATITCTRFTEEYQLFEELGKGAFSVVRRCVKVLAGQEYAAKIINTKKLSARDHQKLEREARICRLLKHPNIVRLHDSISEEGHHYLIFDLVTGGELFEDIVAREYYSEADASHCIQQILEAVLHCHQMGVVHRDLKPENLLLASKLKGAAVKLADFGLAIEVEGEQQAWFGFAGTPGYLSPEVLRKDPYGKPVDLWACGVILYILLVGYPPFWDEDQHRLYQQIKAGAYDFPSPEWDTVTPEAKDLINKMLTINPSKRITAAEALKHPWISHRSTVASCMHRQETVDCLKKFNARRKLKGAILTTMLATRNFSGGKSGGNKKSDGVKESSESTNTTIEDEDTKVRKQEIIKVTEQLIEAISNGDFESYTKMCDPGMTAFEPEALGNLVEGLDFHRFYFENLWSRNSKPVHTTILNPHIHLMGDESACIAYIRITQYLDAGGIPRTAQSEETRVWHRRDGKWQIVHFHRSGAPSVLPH

Molecular target: CAMK2A (UniProt Q9UQM7)
Assay: number of time points (of 5) at which kinase-Nluc abundance scored as decreased, DMSO-normalised (count); higher = more persistent destabilization
Conditions: K562; 2-18 h

| SMILES | number of time points |
| --- | --- |
| N#Cc1ccc2[nH]c(O)c(-c3ccc(CN4CCOCC4)cn3)c2c1 (10 µM) | 0 |
| CCN(CC)CCCCNc1ncc2cc(-c3cc(OC)cc(OC)c3)c(NC(=O)NC(C)(C)C)nc2n1 (10 µM) | 0 |
| Oc1ccc(-c2nc(-c3ccc(F)cc3)c(-c3ccncc3)[nH]2)cc1 (2.5 µM) | 0 |
| O=C1NCCc2[nH]c(-c3ccnc(-c4cnc5ccccc5c4)c3)cc21 (10 µM) | 0 |
| Cc1cc(N2CCOCC2)cc2[nH]c(-c3c(NC[C@@H](O)c4cccc(Cl)c4)cc[nH]c3=O)nc12 (10 µM) | 0 |
| COc1cc(OC)cc(-c2cc3cnc(N)nc3nc2NC(=O)NC(C)(C)C)c1 (10 µM) | 0 |
| Cc1ccc(NC(=O)Nc2nnc(Sc3ncnc4cc(OCCCN5CCOCC5)ccc34)s2)cc1 (10 µM) | 0 |
| N#C/C(=C\c1ccc(O)c(O)c1)C(=O)NCCCc1ccccc1 (10 µM) | 0 |
| Cc1cccc([C@@H](CO)NC(=O)[C@@H](C)N2Cc3ccc(-c4nc(NC5CCOCC5)ncc4Cl)cc3C2=O)c1 [ERK1/2 inhibitor 1] (10 µM) | 0 |
| CCOc1ccn(-c2ccc(F)cc2)c(=O)c1C(=O)Nc1ccc(Oc2ccnc(N)c2Cl)c(F)c1 (10 µM) | 0 |
| O=c1cc(N2CCOCC2)oc2c(-c3ccccc3)cccc12 (10 µM) | 0 |
| O=c1oc2c(O)c(O)cc3c(=O)oc4c(O)c(O)cc1c4c23 [Ellagic acid] (10 µM) | 0 |
| C=CC(=O)Nc1ccc2ncnc(Nc3cccc(Br)c3)c2c1 (10 µM) | 0 |
| Cc1c(Cn2c(C)nc3c(C(=O)O)cc(N4CCOCC4)cc32)cccc1C(F)(F)F (10 µM) | 0 |
| Cc1c[nH]c2nccc(Oc3c(F)cc(Nc4cc(Cl)nc(N)n4)cc3F)c12 (10 µM) | 0 |
| CC(C)CC(=O)Nc1n[nH]c2c1CN(C(=O)C1CCN(C)CC1)C2(C)C (2.5 µM) | 0 |
| CCN(CCO)CCCOc1ccc2c(Nc3cc(CC(=O)Nc4cccc(F)c4)[nH]n3)ncnc2c1 [Barasertib-HQPA] (10 µM) | 0 |
| N#C/C(=C\c1ccc(O)c(O)c1)C(=O)NCc1ccccc1 (10 µM) | 0 |

| SMILES | number of time points |
| --- | --- |
| COc1nccc(-c2c(-c3ccc(F)cc3)ncn2C2CCC(O)CC2)n1 (stereo not given) (10 µM) | 0 |
| O=c1c(-c2ccc(O)cc2)coc2cc(O)cc(O)c12 [Genistein] (10 µM) | 0 |
| CCOc1cc2ncc(C#N)c(Nc3ccc(OCc4ccccn4)c(Cl)c3)c2cc1NC(=O)/C=C/CN(C)C [Neratinib] (10 µM) | 0 |
| CN1CCC(Nc2ncc3ncnc(Nc4ccc(F)c(Cl)c4)c3n2)CC1 [Falnidamol] (10 µM) | 0 |
| O=c1c(O)c(-c2ccc(O)c(O)c2)oc2cc(O)cc(O)c12 [Quercetin (dihydrate)] (10 µM) | 0 |
| COc1ccc(C=C(C#N)c2cccnc2)cc1OC (10 µM) | 0 |
| Nc1ncnc2c1c(-c1ccc(Oc3ccccc3)cc1)cn2C1CCCC1 (2.5 µM) | 0 |
| COc1cc2nc(C)nc(N[C@H](C)c3cc(N)cc(C(F)(F)F)c3)c2cc1O[C@H]1CCOC1 (10 µM) | 0 |
| N#CC(=Cc1ccc(O)c(O)c1)C(=O)NCc1ccccc1 (mixture of isomers) (10 µM) | 0 |
| O=C1Cc2c([nH]c3ccc(Br)cc23)-c2ncccc2N1 [1-Azakenpaullone] (10 µM) | 0 |
| COc1cc2c(Nc3ccc(Br)cc3F)ncnc2cc1OCCn1ccnn1 (10 µM) | 0 |
| CNc1nc(-c2ccc3c(N)n[nH]c3c2)cc(N2C[C@@H](C(=O)NC3CCCCC3)CC[C@H]2C)n1 (10 µM) | 0 |
| Cc1cc(F)c(C(=O)Nc2cccc(-c3nncn3C(C)C)n2)cc1-n1cnc(C2CC2)c1 [Selonsertib] (10 µM) | 0 |
| COc1cc(C)c(Sc2cnc(NC(=O)c3ccc(CNC(C)C(C)(C)C)cc3)s2)cc1C(=O)N1CCN(C(C)=O)CC1 (stereo not given) (2.5 µM) | 0 |
| CCN(CC)CCCCNc1ncc2cc(-c3c(Cl)cccc3Cl)c(NC(=O)NC(C)(C)C)nc2n1 (2.5 µM) | 0 |
| COc1cc(C=C(C#N)C(N)=O)cc(CSc2nc3ccccc3s2)c1O (10 µM) | 0 |
| C[C@]1(O)C[C@@H](c2nc(-c3ccc4ccc(-c5ccccc5)nc4c3)c3c(N)nccn32)C1 [Linsitinib] (2.5 µM) | 0 |

Some of the entries so far, field by field.
O=c1cc(N2CCOCC2)oc2c(-c3ccccc3)cccc12 (10 µM)
  number of time points: 0
O=c1oc2c(O)c(O)cc3c(=O)oc4c(O)c(O)cc1c4c23 [Ellagic acid] (10 µM)
  number of time points: 0
C=CC(=O)Nc1ccc2ncnc(Nc3cccc(Br)c3)c2c1 (10 µM)
  number of time points: 0
